Data source: PubChem BioAssay AID504795 (Drosophila RNAi Screening Center, 2011)
The reagents shown are a selection, not the whole library. 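Every listed dsRNA shows some phenotype; how reagents were selected for listing is not stated.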 A plus sign joins genes that one reagent is predicted to hit.

Aim: 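Genes required for normal axon extension and glial cell shape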 (primary screen)
Cells: primary Drosophila neurons and glia
Reagent: long dsRNA against Drosophila genes, 250 ng dsRNA per well
Time to read-out: one week
Detection: 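GFP-labelled neurons and glia imaged live by automated microscope one week after 250 ng dsRNA per well; morphology scored by eye as descriptive phenotype terms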

Gene	DRSC id	phenotype seen, replicate 1	phenotype seen, replicate 2
CR30068 (retired record)	DRSC05477	axon bundles split apart	
Gr47b	DRSC05275	too many neurite branches	
CG12126	DRSC06103	too many neurite branches	
Mi-2	DRSC11222	cell fragments present	
CG11018	DRSC06024	axon bundles split apart	
pcx	DRSC18188	abnormal cell clusters	
Sox15	DRSC07555	fewer cells	
otp	DRSC04050	too many neurite branches	
otp	DRSC04707	sheet-like cell extensions	
DIP-kappa	DRSC01336	abnormal cell clusters	
PIG-C	DRSC08241	too many neurite branches	
Cpr78Ca	DRSC11651	abnormal cell clusters	
BEAF-32 + CG42254 (retired record)	DRSC05503	axon bundles split apart	
Lsm10	DRSC06250	too many neurite branches	
CG9287	DRSC03186	abnormal cell clusters	
CG3335	DRSC10358	sheet-like cell extensions	
Lmpt	DRSC09866	cell fragments present	
Gmd	DRSC03119	too many neurite branches	
Cyp6a22	DRSC07382	abnormal cell clusters	
Parp1	DRSC07725	sheet-like cell extensions	
dpr3	DRSC21369	abnormal cell clusters	
Ccdc114	DRSC15025	abnormal cell clusters	
ich	DRSC14448	too many neurite branches	
Pde6	DRSC16403	abnormal cell clusters	
lilli	DRSC00708	cell fragments present	
Cat	DRSC11110	axon bundles split apart	
Vha14-2	DRSC12145	too many neurite branches	
Arf4	DRSC17195	too many neurite branches	
Cals	DRSC21661	axon bundles split apart	
CG13247	DRSC11695	reduced axon outgrowth	
CG5863	DRSC15898	beaded; swollen axons	
CG6685	DRSC10695	cell fragments present	
jeb	DRSC06307	beaded; swollen axons	
CG30376	DRSC05086	sheet-like cell extensions	
trpl	DRSC06728	axon bundles split apart	
trpl	DRSC06729	reduced axon outgrowth	
CG2812	DRSC04319	abnormal cell clusters	
ind	DRSC11355	too many neurite branches	
sqz	DRSC16980	axon bundles split apart	
TBPH	DRSC04660	abnormal cell clusters	
RIC-3	DRSC04543	axon bundles split apart	
HDAC11	DRSC14280	axon bundles split apart	
AGO2	DRSC09999	too many neurite branches	sheet-like cell extensions
CG4362	DRSC15567	beaded; swollen axons	
CG10991 (retired record)	DRSC12156	too many neurite branches	
CCHa1	DRSC14821	abnormal cell clusters	
RpS8	DRSC16318	axon bundles split apart	
Jwa	DRSC02048	too many neurite branches	
Ccdc39	DRSC12286	abnormal cell clusters	
CG14957	DRSC08416	reduced axon outgrowth	
LysE	DRSC08675	too many neurite branches	
Deaf1	DRSC11143	fewer cells	
Ref1	DRSC12497	axon bundles split apart	
Ref1	DRSC22387	too many neurite branches	
Irp-1B	DRSC16720	too many neurite branches	
CenG1A	DRSC03506	beaded; swollen axons	
Alg10	DRSC10892	axon bundles split apart	
CG11977	DRSC14454	axon bundles split apart	
CG34327	DRSC22380	axon bundles split apart	axon bundles split apart
NimB2	DRSC22645	too many neurite branches	
Nnp-1	DRSC02165	abnormal cell clusters	
Lsm11	DRSC06238	fewer cells	
alpha-Est10	DRSC12613	reduced axon outgrowth	
RpS6	DRSC18712	sheet-like cell extensions	
Vha100-2	DRSC14152	axon bundles split apart	
CG15498	DRSC15040	reduced axon outgrowth	
Impbeta11	DRSC07525	fewer cells	
atilla	DRSC02971	too many neurite branches	
CG12078	DRSC08242	axon bundles split apart	
CG14654 (retired record)	DRSC12240	axon bundles split apart	
CG14696	DRSC14919	sheet-like cell extensions	
CG17803	DRSC15275	reduced axon outgrowth	
CG5276	DRSC15759	axon bundles split apart	
CG10063	DRSC09688	too many neurite branches	
Cdc45	DRSC17747	reduced axon outgrowth	
stv	DRSC10111	axon bundles split apart	
CG10257	DRSC05985	axon bundles split apart	
CG7992	DRSC20070	abnormal cell clusters	
CG7889	DRSC20066	too many neurite branches	
Lmx1a	DRSC10275	axon bundles split apart	beaded; swollen axons
CG15167	DRSC02468	weaker green signal	
CG15098	DRSC06527	axon bundles split apart	
mv	DRSC08208	abnormal cell clusters	
jus	DRSC14862	sheet-like cell extensions	
CG6569	DRSC16067	axon bundles split apart	
CG12902	DRSC06217	axon bundles split apart	
CG30495	DRSC06703	too many neurite branches	
CG16894	DRSC21785	too many neurite branches	
Jupiter	DRSC15205	beaded; swollen axons	
Lip2	DRSC02578	axon bundles split apart	
CG4712	DRSC06882	axon bundles split apart	
CG13339	DRSC06373	fewer cells	
Gr28b	DRSC02292	too many neurite branches	
CG42539 (retired record)	DRSC13691	axon bundles split apart	
CG46301	DRSC01916	axon bundles split apart	
PGRP-SD	DRSC10856	too many neurite branches	
CG33017	DRSC06574	too many neurite branches	
CG10311	DRSC14228	abnormal cell clusters	
CG11192	DRSC06057	axon bundles split apart	
spartin	DRSC12187	fewer cells	
Drsl5	DRSC08159	sheet-like cell extensions	
chrb	DRSC11335	too many neurite branches	
Prx6c	DRSC06080	too many neurite branches	
PCNA2	DRSC02030	axon bundles split apart	
CG31562 (retired record)	DRSC12274	axon bundles split apart	
CG5885	DRSC02910	axon bundles split apart	
CG4021	DRSC04439	fewer cells	
Ir52d	DRSC06264	too many neurite branches	
Spn53F	DRSC06022	abnormal cell clusters	

Records listed so far whose target name begins with I or i:
Gene	DRSC id	phenotype seen, replicate 1	phenotype seen, replicate 2
ich	DRSC14448	too many neurite branches	
ind	DRSC11355	too many neurite branches	
Irp-1B	DRSC16720	too many neurite branches	
Impbeta11	DRSC07525	fewer cells	
Ir52d	DRSC06264	too many neurite branches	
